In PMC6609874, “MeABL5, an ABA Insensitive 5-Like Basic Leucine Zipper Transcription Factor, Positively Regulates MeCWINV3 in Cassava (Manihot esculenta Crantz)”:
Tags and fusion partners may be left off the protein sequences shown.

Target: T1, MeABL5 (Manihot esculenta Crantz) (UniProt A0A411G151)
T1 sequence: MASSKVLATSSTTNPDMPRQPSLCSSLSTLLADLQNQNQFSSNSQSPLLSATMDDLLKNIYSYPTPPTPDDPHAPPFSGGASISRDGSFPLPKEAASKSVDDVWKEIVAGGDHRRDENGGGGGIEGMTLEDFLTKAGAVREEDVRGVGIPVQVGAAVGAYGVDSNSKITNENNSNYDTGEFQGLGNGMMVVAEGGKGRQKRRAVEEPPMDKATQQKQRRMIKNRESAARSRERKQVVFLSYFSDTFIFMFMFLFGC
Experiment: EMSA
Conditions: 100-250 ng protein, 500 ng DNA, EMSA kit (Invitrogen), room temperature 30 min, 0-250 ng protein, PAGE with SYBR Green/SYPRO Ruby stain, salt and pH not stated, recombinant protein, label: none (SYBR Green stain)

Q: Does “ATCATTCTCACAGGACATCAAATTTATATTAGACTACCTTATTTTAATTTCATTACCTAAATAATTAATATTAATAATTAAACTTTAGTGTTTGGAATAATTAGCATTTTGGATTTTATCACTTATTTTCTTTATGTGAGAATGAGATGGATACCTTTCTTGCTATAAATTCTAAATATCCCTTTTGACTTTGTTAATTTATTTTATAAAAAAAATTTAATTACAAATTATTATTATGTATATTTAAATTATACATATTAAAAATAAATAATTTTTAATAATATCTTTTAATAAAATTAAATATTTTTTAAATCAAAATTAAATCTTAATTAATAAAATAAAGTTTTAATATATATTCAATTTACTATGCTGTTCCTTACGCTAAAATGAGCGGCATGCAATCGTTGACATGTGAGTATTTGACGTATCCACGTGGGAAAGGGAAGAAAAACAACATTGAATAACCTAATTTTTGTCTAAATTCAATTTACATAAAAAATTCAAAATATAAATAAGAGTGTTTTATGTGATTTTAATTATATTAATAAAATCAAATTTCTTTTTTTATTTTCATATTTAATTATTTTAATAACATTATATTTAGAAATATATAGAAATTGGGTTCACATGGTGAAGCTGTAAGACAACTAGCATGGAAATAATTAAATAATTGTTTTTTTTTTTTTCAAAATCCACCCAAAAATCATTAATTGGTTGATTTACTGCCTTTGATAATTTGTCCCCTCTGGCCTATCAGCTGCTGTTAGATAAAATAAAATATTCTATATATAAAATTTTTTTAAAAATATATTATTATTCCAGAAATAAAGATATTTTTATATTACCTTAAACACATTGACTTTGACTTCAAAAACCAGTTTTCTTGGGTGCTGCTGTAACTTAGAAAGTGAAATTGAAATAAATAAATAGGATGGTTACCTGATTTTGAGAACTTTTACTTCATTTTTGTTTTTCATATTTGAAAAAAATGAGAAAAACTAGAAAAAATAATATTCCATGTAGACTAATCTTTTCATGCATCCACCAATTTTCTCCATTAAGATAAAAATTTCTACTCTCTGCCACCAAACTCCTCTATATAAGTTCCTTGGGGAGTTGCAGACATGTCTCACTTCTCACCTTATTCAATCAAAGGAGCT (double strand) [MeCWINV3 promoter 1,160 bp]” bind?
A: binds
